Two sequences from patent US20150232852 can be followed below.

Chains of the proteins cited; added tags and fusions are not shown. Residues count along the entry.
UniProt P09681, 52-93: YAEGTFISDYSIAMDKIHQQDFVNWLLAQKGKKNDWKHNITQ
UniProt P01275, 53-89: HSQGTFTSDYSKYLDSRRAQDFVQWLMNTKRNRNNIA
UniProt P01275, 98-128: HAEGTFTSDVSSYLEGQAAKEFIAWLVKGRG
UniProt P01275, 53-81: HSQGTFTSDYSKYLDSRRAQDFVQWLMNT

Construct, isoform or probe ends are uncertain for at least one entry. For some of these results: No signal at the amounts used counts as a negative. For some of these results: Tags and fusion partners may be left off the protein sequences shown.

Series [1] concerns the target GIP (glucose-dependent insulinotropic polypeptide) (Homo sapiens) (UniProt P09681). Put plainly: competition with a labelled probe. The conditions noted are these: 5'-40 kDa PEG, competitive Biacore, mirror-image nucleic acid.
The next series deals with GLP-2(1-33). Put plainly: competition with a labelled probe. The settings on record: 5'-40 kDa PEG, not recognized, competitor up to 2000 nM, mirror-image nucleic acid.
For the next series, the target named is oxyntomodulin (OXM) (UniProt P01275). Put plainly: competition with a labelled probe. The settings on record: 5'-40 kDa PEG, comparable to glucagon, mirror-image nucleic acid.
Series [2] deals with GLP-1(7-37) (Homo sapiens) (UniProt P01275). Put plainly: competition with a labelled probe. The settings on record: 5'-40 kDa PEG, not recognized, competitor up to 2000 nM, mirror-image nucleic acid.
The target of series [3] is T1, Prepro-VIP(81-122) (PHV-42) (Homo sapiens) (UniProt P01282).
T1 sequence: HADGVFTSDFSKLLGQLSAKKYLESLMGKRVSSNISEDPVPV
Put plainly: competition with a labelled probe. The conditions noted are these: 5'-40 kDa PEG, mirror-image nucleic acid.

Series [4] deals with GIP (glucose-dependent insulinotropic polypeptide) (Homo sapiens) (UniProt P09681). Put plainly: activity in cells. The settings on record: 5'-40 kDa PEG, purified recombinant protein, synthetic backbone, mirror-image nucleic acid, dose not given here.
For series [5], the target named is glucagon, L-form, biotinylated (glucagon1-29-AEEAc-AEEAc-biotin) (Homo sapiens) (UniProt P01275). Put plainly: SPR. The settings on record: 5'-40 kDa PEG; L-DNA with L-rA12, L-rG23, L-rU35; 37 C; synthetic protein; mirror-image nucleic acid; variant of 259-H6-014-R12/23/35.
[6] abbreviates: L-DNA with L-rA13, variant of 259-H6-002-R13.
[7] abbreviates: L-DNA with L-rA12, L-rG23, L-rU35, variant of 259-H6-014-R12/23/35.

In the case of “ACTCGAGAGGAAAGGTTGGTAAAGGTTCGGTTGGATTCACTCGAGT [NOX-G13 (259-H6-002-R13-5'-PEG)]”, the binding result in series [1] (L-DNA with L-rA13, also inhibits GIP-induced cAMP, variant of 259-H6-002-R13) is “binds”; in the series on GLP-2(1-33) (setting [6]) it was “no binding”; with oxyntomodulin (OXM) (setting [6]), “binds”; in series [2] (setting [6]) it was “no binding”; in series [3] (L-DNA with L-rA13, not recognized, competitor up to 2000 nM, variant of 259-H6-002-R13), “no binding”. In series [4] (L-DNA with L-ribo A at position 13, dose-dependent inhibition of GIP-induced cAMP, RIN-m5F cells), the “functional effect of the aptamer” value is “active”.

For “GCCGAGAGGAAAGGTTGGTAAAGGTTCGGTTGGAUTCACTCGGC [NOX-G14 (259-H6-014-R12/23/35-5'-PEG)]”, the binding result in series [1] (setting [7]) is reported as “binds”; with GLP-2(1-33) (setting [7]) it was “no binding”; with oxyntomodulin (OXM) (setting [7]), “binds”; in series [2] (setting [7]) it was “no binding”; in series [3] (L-DNA with L-ribo rA12, rG23, rU35, competitive Biacore, 37 C, purified recombinant protein, synthetic backbone), “no binding”; in series [5], “binds”. The “functional effect of the aptamer” value in series [4] (L-DNA with L-ribo rA12, rG23, rU35, inhibited GIP-induced cAMP formation) is on record as “active”.
